Measured values taken from the supplement of paper PMC4683952.
The other results are listed elsewhere or left out. No stated cut-off is given here; in the data, active = 2 or more and inactive = the rest. Repeats in this data set agree poorly, so a single value says little.

system: Lgr5 (MarsCy1-Lgr5-EGFP, U2OS); assay: cell-surface Lgr5 expression (SCi1 fluorescence, background-subtracted) relative to WT DMSO (fold of DMSO control); higher = more Lgr5 at the plasma membrane; conditions: U2OS MarsCy1-Lgr5-EGFP stable; treatment time: overnight; library: ActiProbe-5K (TimTec); 25 µM

Row | SMILES | cell-surface Lgr5 expression
1 | CC(C)c1nc(C#N)c(N2CCOCC2)o1 | inactive: 1.11
2 | COc1cc(OC)c2cc[nH]c2c1 | inactive: 1.27
3 | COc1c2c(c(Br)c([N+](=O)[O-])c1[N+](=O)[O-])OCCO2 | inactive: 1.61
4 | S=c1[nH]nc(-c2ccccc2)n1-c1ccccc1 | inactive: 1.41
5 | CC1CN(c2ccc([N+](=O)[O-])c(NC3CC3)c2)CC(C)O1 (stereo unspecified) | inactive: 1.35
6 | COC(=O)Nc1ncc(CN2CCOCC2)s1 | inactive: 0.733
7 | COc1nc(-n2nc(C)cc2C)nc(-n2nc(C)cc2C)n1 | inactive: 1.25
8 | N#Cc1c(SCC(=O)C23CC4CC(CC(C4)C2)C3)sc2c(O)nc(=O)[nH]c12 | inactive: 1.19
9 | COc1cc2c(cc1OC)CC1(C2)c2ccccc2CN1C | inactive: 1.12
10 | N#Cc1ccc(CSc2ncccn2)cc1 | inactive: 1.52
11 | CCCc1nc(N)c(C#N)c(-c2ccco2)c1CC | inactive: 1.42
12 | O1C([n@]2cc(c([nH]c2=O)=O)CO)C(C(C1CO)O)O (stereo unspecified) | inactive: 1.02
13 | Oc1ccc(/C=N/NC(=S)S)cc1 | inactive: 1
14 | OCC(O)/C=N/Nc1nc(N2CCOCC2)nc(N2CCOCC2)n1 (stereo unspecified) | inactive: 1.06
15 | O=C1N(O)C2(C=CCCC2)C(=O)C12CCCCC2 (stereo unspecified) | inactive: 1.31
16 | OCc1nnn(-c2nc(N3CCOCC3)nc(N3CCOCC3)n2)c1CO | inactive: 0.985
17 | Cc1cc(C)n(CC(=O)O)c(=O)c1[N+](=O)[O-] | inactive: 1.2
18 | O=C1Nc2ccccc2/C1=N\c1ccccc1/N=C1/C(=O)Nc2ccccc21 | inactive: 1.13
19 | CCOC(=O)CN1C(=O)S/C(=C\c2ccc(N3CCCC3)o2)C1=O | inactive: 1.18
20 | O=C(O)c1nn[nH]c1C(=O)O | inactive: 1.83
21 | Cc1cc(Cc2cc(C(C)(C)C)c(O)c(C(C)(C)C)c2)c(O)c(C(C)(C)C)c1 | inactive: 0.995
22 | NS(=O)(=O)c1cc(Cl)ccc1F | inactive: 1.37
23 | O=C(NCC1CCCO1)c1cccs1 (stereo unspecified) | inactive: 0.874

Row | SMILES | cell-surface Lgr5 expression
24 | CC12CNC3(C#N)CC1CCC32C (stereo unspecified) | inactive: 1.03
25 | CCCN1c2ccccc2-c2c(ssc2=S)C1(C)C | inactive: 0.976
26 | CC(C)N1CC(C(=O)O)CC1=O (stereo unspecified) | inactive: 1.07
27 | N#C/C(=C/c1ccccc1Cl)c1ccccc1 | inactive: 1.73
28 | CN(C)C(=S)c1ccc(C#N)cc1 | inactive: 1.2
29 | Brc1ccc(/C=N/C23CN4CN(CN(C4)C2)C3)cc1 | inactive: 1.13
30 | O=C(NCN1CCCCC1)C12CC3CC(CC(C3)C1)C2 | inactive: 1.07
31 | O=C1c2ccccc2C2N1c1ccccc1S(=O)(=O)N2Cc1ccccc1 (stereo unspecified) | inactive: 1.47
32 | O=C1NC(=S)N/C1=C\c1cc(Br)cc(Br)c1O | inactive: 1.06
33 | Fc1ccc(Nc2nc(Oc3ccc4c(c3)OCO4)nc(N3CCOCC3)n2)c(F)c1 | inactive: 1.12
34 | Cn1cnc2c(=O)[nH]c(N)nc21 | inactive: 1.03
35 | CN(c1nc(-c2ccccc2)cs1)C1CCS(=O)(=O)C1 (stereo unspecified) | inactive: 1.08
36 | O=C(Nc1ccc2nsnc2c1)C1CC1 | inactive: 0.855
37 | O=[N+]([O-])c1ccc(-n2cncn2)c(F)c1 | inactive: 1.07
38 | NCCN1CCC(O)CC1 | inactive: 1.22
39 | O=C1NCCN1C(=O)Nc1ccc(Cl)cc1Cl | inactive: 0.977
40 | N#Cc1c(C(F)(F)F)cc(-c2cccs2)[nH]c1=O | inactive: 1.03
41 | COc1ccc(C2=CC(c3ccccc3)SC(=N)N2)cc1 (stereo unspecified) | inactive: 1.12
42 | Cc1nc(S)c2ccccc2n1 | inactive: 0.895
43 | CCN1C(N)=C(C#N)C2(CCNCC2)c2nc(C)oc21 | inactive: 0.932
44 | Cn1cccc1CNn1nnnc1N | inactive: 1.17
45 | COc1cc2c(cc1OC)-c1cc(Br)ccc1C(C#N)C2 (stereo unspecified) | inactive: 1.4
46 | CCN(CC)C(=S)SCC(=O)NC12CC3CC(CC(C3)C1)C2 | inactive: 1.12

Row | SMILES | cell-surface Lgr5 expression
47 | Cn1cc(/C(Cc2ccccc2)=N/O)c2ccccc21 | inactive: 0.745
48 | c1ccc2sc(-c3cc[nH]n3)nc2c1 | inactive: 0.941
49 | C1(/C(=C(\C)C)NC(=O)N1)=O | inactive: 1.2
50 | CC(C)CCc1nnc(N)s1 | inactive: 1.32
51 | Oc1c(Br)cc(Br)cc1/C=N\c1ccc(F)cc1 | inactive: 0.936
52 | Nc1nonc1-c1noc(-c2ccco2)n1 | inactive: 1.09
53 | O=C1CC2CS(=O)(=O)CC2N1c1cc(Cl)ccc1Cl (stereo unspecified) | inactive: 1.1
54 | N#CCCN(CCC#N)c1ccncc1 | inactive: 1.42
55 | CN(C)CC#CC1(O)CCCCC1 | inactive: 1.22
56 | Cc1nnc(NC(=O)Cn2nc(C(F)(F)F)c(Cl)c2C2CC2)s1 | inactive: 1.16
57 | CCN(CC)CCCNC(=O)C(C)C | inactive: 0.977
58 | O=[N+]([O-])c1ccc(/N=C/c2ccc(Br)o2)cc1 | inactive: 1.04
59 | O/N=C(/C=C\c1ccccc1)\C=C\c1ccccc1 | inactive: 0.604
60 | CN(C)c1ccc(/C=N\c2ccc3cc4ccc(/N=C\c5ccc(N(C)C)cc5)cc4nc3c2)cc1 | inactive: 1.74
61 | O=C(N/N=C/c1ccc(Br)s1)c1cnccn1 | active: 2
62 | CS(=O)(=O)NC1c2ccccc2-c2ccccc21 | inactive: 1.2
63 | O=C1c2sc3nncc(=O)n3c2C(=O)N1c1ccccc1 | inactive: 1.44
64 | Cc1cc2c(c(=S)[nH]1)C(=O)OC2 | inactive: 1.01
65 | Cc1cc(C(=O)O)c(CSCc2cc(C(=O)O)c(C)o2)o1 | inactive: 1.12
66 | NC(=S)N/N=C\c1cc(Br)cc(Br)c1O | inactive: 0.707
67 | O=S(=O)(c1ccc(F)c(Cl)c1)N1CCCC1 | inactive: 1.31
68 | N#CCCOC1(C#CCN2CCCCC2)CCCCC1 | inactive: 1.09
69 | CC(C)NC(=S)NC(=O)C1CCCCC1 | inactive: 1.09

Row | SMILES | cell-surface Lgr5 expression
70 | CCCCn1c(SC(C)CC)nc2c1c(=O)[nH]c(=O)n2C (stereo unspecified) | inactive: 1.65
71 | C#CCSc1nc(-c2ccccc2)cc(-c2ccccc2)c1C#N | inactive: 1.04
72 | Cn1cc(C=O)c2ccc(F)cc21 | inactive: 1.02
73 | COc1ccc(S(=O)(=O)NCC2CCCO2)cc1 (stereo unspecified) | inactive: 1.07
74 | Cl.Fc1ccccc1CSC1=NCCN1 | inactive: 1.07
75 | c1csc(-c2noc(COc3ccc4c(c3)CCC4)n2)c1 | inactive: 1.31
76 | OCn1cnc2ccccc21 | inactive: 0.958
77 | CC(=O)Nc1nonc1NC(=O)C(F)(F)F | inactive: 1.18
78 | CN1CCc2cc(C=O)ccc21 | inactive: 1.25
79 | CC(=O)OC1CC(C)CC(C)(C)C1 (stereo unspecified) | inactive: 1.31
80 | c1ccc2c3c([nH]c2c1)CCCC3 | inactive: 1.11
81 | O=C(C1=C(O)C(=O)N(CCN2CCOCC2)C1c1ccco1)c1ccco1 (stereo unspecified) | inactive: 1.08
82 | Oc1c(Br)cc(Br)cc1/C=N\c1ccc(Cl)cn1 | inactive: 1.18
83 | C1CC(/CCC1)=N/Oc1ccc(cc1)[N+]([O-])=O | inactive: 1
84 | N#CC1=C(N)Oc2c(c(=O)oc3ccccc23)C12C(=O)Nc1ccccc12 (stereo unspecified) | inactive: 1
85 | Sc1nnc(-c2ccccn2)n1/N=C/C=C\c1ccco1 | inactive: 1.11
86 | Cc1nc2sc(-c3ccon3)c(-n3cccc3)c2c(C)c1Cl | inactive: 1.2
87 | Cn1cnc2sc3c(c2c1=O)CCCC3 | inactive: 0.996
88 | O=Cc1cnn2cccnc12 | inactive: 1.34
89 | CS(=O)(=O)N1CCCc2cc([N+](=O)[O-])cc([N+](=O)[O-])c21 | inactive: 1.21
90 | COC(=O)C(C(C)=O)(N1CCOCC1)N1CCOCC1 | inactive: 1.22
91 | O=C1NCCC2C1N=C(N1CCCCC1)N2C1OC(CO)C(O)C1O (stereo unspecified) | inactive: 1.16
92 | O=C1Nc2ccccc2/C1=N\Nc1nnn[nH]1 | inactive: 1.25

Some values from above.
cell-surface Lgr5 expression with `c1csc(-c2noc(COc3ccc4c(c3)CCC4)n2)c1` reads inactive: 1.31
cell-surface Lgr5 expression with `CN1CCc2cc(C=O)ccc21` reads inactive: 1.25
cell-surface Lgr5 expression with `O=C(C1=C(O)C(=O)N(CCN2CCOCC2)C1c1ccco1)c1ccco1` (stereo unspecified) reads inactive: 1.08
cell-surface Lgr5 expression with `CCCCn1c(SC(C)CC)nc2c1c(=O)[nH]c(=O)n2C` (stereo unspecified) reads inactive: 1.65
cell-surface Lgr5 expression with `Oc1c(Br)cc(Br)cc1/C=N\c1ccc(Cl)cn1` reads inactive: 1.18
cell-surface Lgr5 expression with `COc1ccc(S(=O)(=O)NCC2CCCO2)cc1` (stereo unspecified) reads inactive: 1.07

Next compounds follow:

Row | SMILES | cell-surface Lgr5 expression
93 | O=[N+]([O-])c1ccc(Cn2cc[n+](Cc3ccc([N+](=O)[O-])cc3)c2)cc1 | inactive: 1.28
94 | Cc1ccc(OS(=O)(=O)C(F)(F)F)cc1 | inactive: 1.28
95 | Cc1n[nH]c(C)c1CCC(=O)NN | inactive: 1.09
96 | CC1=C(C(=O)OC(C)C)C(c2ccc(C)o2)NC(=O)N1 (stereo unspecified) | inactive: 1.11
97 | CSc1nc2n(n1)C(c1ccc(Cl)cc1)C=C(c1ccccc1)N2 (stereo unspecified) | inactive: 0.739
98 | O=C1OCc2cc(-n3cccc3)ccc21 | inactive: 1.16
99 | COc1cc(=O)oc2cc(O)ccc12 | inactive: 1.04
100 | CC(C)(C)C(N)Cn1ccnc1 (stereo unspecified) | inactive: 1.39
101 | Cn1nnnc1SCC(=O)Nc1nccs1 | inactive: 1.16
102 | Clc1cc2c(cc1/C=N/Nc1nc3ccccc3[nH]1)OCO2 | inactive: 0.755
103 | CC1CCc2c(sc(N)c2C(=O)OC(C)C)C1 (stereo unspecified) | inactive: 1.07
104 | CC1(C)Oc2ccc(Br)cc2O1 | inactive: 0.671
105 | COCCN1C(=O)CCC2(CCC(=O)NC2)C1=O (stereo unspecified) | inactive: 1.35
106 | CCCCCN(CCCCC)c1nc2c(c(=O)[nH]c(=O)n2C)n1C | inactive: 1.41
107 | Fc1ccc([C@@H]2Nc3c(F)cccc3[C@@H]3C=CC[C@H]32)cc1 | inactive: 1.17
108 | O=C(CC1NC(=O)N(C2CCCCC2)C1=O)NCC12CC3CC(CC(C3)C1)C2 (stereo unspecified) | inactive: 0.785
109 | CCCC(=O)OC1CC(n2cc(C)c(=O)[nH]c2=O)OC1CO (stereo unspecified) | inactive: 0.961
110 | NC(=S)N/N=C/c1ccc(Cl)cc1Cl | inactive: 1.62
111 | O=c1cc(O)c2sc3nc4c(c(C(F)(F)F)c3c2[nH]1)CCCCC4 | inactive: 1.35
